Measurements published in PubChem BioAssay AID1347076 (National Center for Advancing Translational Sciences (NCATS), 2019).
Screen size: about 400,000 compounds; about 13,000 (3.2%) were called active. The inconclusive results got no clear call from the source; some entries with a clear call stand among them for comparison. The call rests on the fitted dose curve; in most records, active means well fitted cell-killing curve with a large enough effect; inconclusive means small, poorly fitted or top-dose-only effect, or effect the other way; inactive means flat fitted curve, though single readings scatter. A potency beside an inconclusive call is a rough fit, not a confirmed value.

Test: qHTS assay for MDR1-selective chemotherapeutics: Primary screen using the drug-selected MDR subline cells KB-V1; further: nearly all actives have a fitted effect of over 60% in size
Conditions: KB-V1 MDR cells viability, CellTiter-Glo, 72 h; activity change, negative = cytotoxicity: at 46.1 µM (top of the series)
Method in brief: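 Luminescent ATP read-out (CellTiter-Glo, 10 min) measures survival of drug-selected KB-V1 MDR cells after 72 h, 37 degrees C compound exposure. Medium: phenol-red-free DMEM, 10% FBS. Values from fitted concentration-response curves.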
On the % scale 0 is the no-effect control and ±100 the full control effect; potency means the concentration at half of the fitted maximal effect.

SMILES | Potency | activity change, negative = cytotoxicity
O=C(O)c1ccc(NS(=O)(=O)c2ccc3c(c2)C(=O)c2cc(S(=O)(=O)Nc4ccc(C(=O)O)cc4)ccc2-3)cc1 | inconclusive: 6.51 µM [rising, partial curve, poor fit] | –
CC1(C)OC(c2ccccc2)=C/C(=C\C=N\NC(=O)c2ccncc2)O1 | – | inconclusive: -34% [cytotoxic]
O=C(NC(c1ccc(-c2ccccc2)cc1)c1cnccn1)C1CCN(Cc2ccc(Oc3ccccc3)cc2)CC1 (stereo unspecified) | inactive | –
CCOC(=O)c1cc(CC)sc1NC(=O)COC(=O)C1CCC1 | inactive | –
COC(=O)c1[nH]c2c(c1C)C(=O)CC(c1ccccc1)C2 (stereo unspecified) | active: 0.58 µM | –
CC(C)C(=O)Nc1cccc(COc2ccccc2CN(Cc2ccccc2)C(=O)OC(C)(C)C)c1 | inconclusive: 18.4 µM [cytotoxic, partial curve] | –
Cc1cccc(C)c1N1C(=O)c2ccccc2NC(=O)C1C(=O)Nc1ccc(N2CCOCC2)cc1 (stereo unspecified) | inactive | –
CCOC(=O)c1c(-c2ccccc2)oc2ccc(OCC)cc12 | inconclusive: 29.1 µM [rising, single point] | –
CCCCn1c(SCC(=O)N2CCN(c3ccccc3)CC2)nc2ccsc2c1=O | active: 8.2 µM | –
O=C1CSC(=S)N1Cc1cccnc1 | active: 2.91 µM | –
CN(CC1CCOCC1)C(=O)CC1C(=O)NCCN1CC1CCCCC1 (stereo unspecified) | inconclusive: 10.3 µM [cytotoxic, partial curve, poor fit] | –
O=S(=O)(c1ccccc1)c1nc(-c2ccccc2F)oc1N1CCOCC1 | inconclusive: 13 µM [cytotoxic, partial curve] | –
CN(Cc1ccon1)C(=O)C1CCN(C2CCN(CCCc3ccccc3)CC2)CC1 | inactive | –
Cc1ccc(NC(=O)c2ccc([N+](=O)[O-])o2)cc1S(=O)(=O)N1CCOCC1 | inconclusive: 8.2 µM [cytotoxic, partial curve, poor fit] | –
COc1ccc(OC)c(NC(=O)N2CCN(Cc3nc4ccc(C)cc4o3)CC2)c1 | inactive | –
CCOC(=O)C1(C)CCN1C(=O)c1ccc(F)c(Cl)c1 (stereo unspecified) | inactive | –
c1ccc(-n2nnnc2-n2ccnc2)cc1 | inconclusive: 6.51 µM [rising, partial curve, poor fit] | –
COc1ccccc1-c1cc(C(=O)N/N=C/c2ccoc2)c2ccccc2n1 | inconclusive: 18.4 µM [cytotoxic, single point] | –
COc1ccc(NC2=C(C(C)=O)C(c3ccccc3)C(C(C)=O)C(C)(O)C2)cc1 (stereo unspecified) | inactive | –
CC(C)N(C(=S)Nc1cc(S(=O)(=O)N2CCOCC2)ccc1Cl)c1ccccc1 | inactive | –
O=C(CCN1C(=O)c2ccccc2S1(=O)=O)Nc1ccc(F)c([N+](=O)[O-])c1 | inactive | –
CC(C)(C)NC(=O)CSc1nsc(SCC(=O)NC(C)(C)C)c1C#N | inconclusive: 25.9 µM [cytotoxic, single point] | –
Cc1[nH]c2ccccc2c1C(=O)COC(=O)c1nccnc1N | inactive | –

In a second layout: results already given.
SMILES	Potency	activity change, negative = cytotoxicity
CN(Cc1ccon1)C(=O)C1CCN(C2CCN(CCCc3ccccc3)CC2)CC1	inactive	–
Cc1ccc(NC(=O)c2ccc([N+](=O)[O-])o2)cc1S(=O)(=O)N1CCOCC1	inconclusive: 8.2 µM [cytotoxic, partial curve, poor fit]	–
COc1ccc(OC)c(NC(=O)N2CCN(Cc3nc4ccc(C)cc4o3)CC2)c1	inactive	–

(further entries)

SMILES | Potency | activity change, negative = cytotoxicity
C=CCn1cc(CN2CCC(C(=O)Nc3cccc(-c4cccc(F)c4)c3)CC2)c(C)n1 | inconclusive: 7.31 µM [cytotoxic, partial curve] | –
Cc1cccc(OCCCn2c(CCNC(=O)C(C)C)nc3ccccc32)c1 | inconclusive: 23.1 µM [cytotoxic, single point] | –
CCOC(=O)c1c(NC(=O)COc2ccc(Br)cc2)sc(C(C)=O)c1C | inactive | –
COc1ccc(OC)c(Nc2cc3ccccc3c(=O)[nH]2)c1 | active: 23.1 µM | –
CCn1c(SCc2cc(=O)[nH]c3ccccc23)nc2c1c(=O)n(C)c(=O)n2C | active: 16.4 µM | –
Cc1ccc(NC(=O)c2ccc(C(=O)c3ccccc3)cc2)nc1 | – | inconclusive: -71.6%
COC(=O)c1c(-c2ccccc2OC)sc2ccccc12 | inconclusive: 29.1 µM [cytotoxic, single point] | –
O=C(COC(=O)c1ccc(S(=O)(=O)N2CCCC2)cc1)Nc1ccc(F)cc1F | inconclusive: 20.6 µM [rising, single point] | –
CSc1ccc(Cn2nnc(C(=O)NCCc3ccc(Cl)cc3)c2N)cc1 | inconclusive: 0.411 µM [cytotoxic, partial curve, poor fit] | –
Cc1ccc(C(=O)Nc2ccc(C(=O)N3CCCCC3)cc2)o1 | inconclusive: 25.9 µM [cytotoxic, single point] | –
COC(=O)c1sc(NC(=S)NC(=O)c2ccc(C)cc2)nc1C | inconclusive: 32.6 µM [cytotoxic, partial curve, poor fit] | –
O=C(C1CCN(c2ncnc3c2sc2cccc(F)c23)CC1)N1CCOCC1 | inconclusive: 20.6 µM [cytotoxic, single point] | –
CCn1cc(Cl)c(C(=O)NNC(=O)CCn2nc(C)c([N+](=O)[O-])c2C)n1 | inconclusive: 9.2 µM [rising, partial curve] | –
COc1ccc(C(=O)Nc2cc(OC)nc(OC)n2)cc1 | inactive | –
O=C(NCc1ccccc1)/C(=C/c1cccc([N+](=O)[O-])c1)NC(=O)c1ccco1 | inconclusive: 11.6 µM [cytotoxic, partial curve] | –
O=C(CSc1cccc[n+]1[O-])c1cccs1 | inconclusive: 23.1 µM [rising, single point] | –
CCCCc1ccc(NC(=S)NCCc2ccc(S(N)(=O)=O)cc2)cc1 | inactive | –
COc1ccc2nc(NC(=O)c3cc(=O)c4cc(C)c(C)cc4o3)sc2c1 | inconclusive: 5.8 µM [rising, full curve] | –
CC(=O)N1CCCc2cc(S(=O)(=O)N(C)CC(=O)Nc3ccccc3)ccc21 | inconclusive: 16.4 µM [cytotoxic, single point] | –
Cc1ccc(-c2nnc(SCC(=O)N/N=C/c3ccc(C)s3)n2-c2ccccc2)cc1 | active: 20.6 µM | –
O=S(=O)(/C=C/c1ccccc1)c1ccccc1 | inconclusive: 29.1 µM [cytotoxic, single point] | –
FC(F)(F)c1nc(-c2ccccc2)ncc1-c1nnnn1-c1ccccc1 | inconclusive: 23.1 µM [cytotoxic, partial curve] | –
COC(=O)c1cc(NC(=O)Cc2ccccc2[N+](=O)[O-])ccc1Cl | inconclusive: 29.1 µM [cytotoxic, single point] | –
